Amino acid sequences for entries named in this document (tags omitted).
UniProt Q0JBA9, entry or part of it: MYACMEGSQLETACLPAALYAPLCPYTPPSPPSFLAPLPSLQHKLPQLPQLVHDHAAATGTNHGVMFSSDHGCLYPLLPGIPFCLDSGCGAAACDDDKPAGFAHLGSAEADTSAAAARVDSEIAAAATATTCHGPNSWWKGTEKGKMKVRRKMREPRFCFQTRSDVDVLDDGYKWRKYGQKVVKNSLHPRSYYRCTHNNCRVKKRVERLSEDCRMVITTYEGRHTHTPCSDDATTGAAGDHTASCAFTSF

The other results are listed elsewhere or left out.
Each sequence was assayed against OsWRKY34 (Oryza sativa, UniProt Q0JBA9 1-250) (assay: protein-binding microarray (RPBM); PBS, 2% BSA, 51.3 ng/ul salmon testes DNA, 50 uM zinc acetate, 200 nM TF, 25 C, 1 h; high values mean tight binding). Details: protein: recombinant; tags: N-terminal polyhistidine and DsRed monomer fusion (pET32a); label: CyDye5-dUTP incorporated in the synthesized complementary strand; 3' TTTTT single-stranded linker to array surface; dsDNA, one strand shown.
Summary of the method: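 A custom Agilent array was converted to double-stranded form by primer extension with Cy5-dUTP and blocked with 2% BSA. Protein at 200 nM in PBS with 2% BSA, salmon testes DNA and 50 µM zinc acetate was applied for 1 h at 25 °C, followed by washing. The proteins were polyhistidine–DsRed N-terminal fusions of transcription factors, expressed in E. coli BL21-CodonPlus and Ni–NTA-purified. The binding signal is per-feature fluorescence intensity (arbitrary units) from an Axon 4000B scanner.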
In the case of “CATGGCTTTGTGTTAACTGTGAACTCCCTCATCCCTTCTTCGGAGTCACCTAGTGCAG”, the binding signal is reported as 11600 fluorescence intensity (a.u.).
For “TTTCCTCCGTTTCACAATGTAAGTCATTCTAGTATTTCCTCGGAGTCACCTAGTGCAG”, the binding signal was 9570 fluorescence intensity (a.u.).
With “GTTCTTGTAGCAAATGGATCCAGTTTTTCGATGAAATTTCCGGAGTCACCTAGTGCAG” the binding signal was 8740 fluorescence intensity (a.u.).
With “TGTTAGGGTGGGGTACTGCCTACGTGGGCCAATGCCTTCTCGGAGTCACCTAGTGCAG” the binding signal was 12300 fluorescence intensity (a.u.).
For “TTGTGTACTTGTAGAGAATATTTGACTATACATCCTGTTCCGGAGTCACCTAGTGCAG”, the binding signal was 8830 fluorescence intensity (a.u.).
For “CGGATTCCTGATTTCCCAGTCTCTGGCTTTCTTTTTAAACCGGAGTCACCTAGTGCAG”, the binding signal was 8270 fluorescence intensity (a.u.).
For “CTCGTCCACCCTTTTCTGCTCCATGTTTTCATCATCATCTCGGAGTCACCTAGTGCAG”, the binding signal was 11900 fluorescence intensity (a.u.).
“GGCGCGGGGTAGTGGTGGGGATGAAAATGATAGAAAGTTACGGAGTCACCTAGTGCAG” was tested, and the binding signal was 12300 fluorescence intensity (a.u.).
With “TGTAATTTTTTTTGGCGCACTGCTTTTGCCTACCATCTCTCGGAGTCACCTAGTGCAG” the binding signal was 13100 fluorescence intensity (a.u.).
In the case of “TTTTGTTTTCTTTCGATTGCCTTTGCAAATCGCAATTCTTCGGAGTCACCTAGTGCAG”, the binding signal is reported as 11000 fluorescence intensity (a.u.).
With “CCGCGTCGTCGTCGTCTCCGGCCTCCGCTTCCTCGCCGACCGGAGTCACCTAGTGCAG” the binding signal was 9910 fluorescence intensity (a.u.).
In the case of “TGGTGTGTGAGGAAGAGAGCGCGCGGCGTTGTTGGGTGTGCGGAGTCACCTAGTGCAG”, the binding signal is reported as 8470 fluorescence intensity (a.u.).
“TTACTGTTGCTGGCCCCAACCACCCTGCATGGATTACAACCGGAGTCACCTAGTGCAG” was tested, and the binding signal was 8340 fluorescence intensity (a.u.).
With “TTCTTCTCTACTAGTATATCACTTCCGAATTCCAACAAGACGGAGTCACCTAGTGCAG” the binding signal was 9280 fluorescence intensity (a.u.).
For “GCCGCCGCCGCCGCCTTCGCCGCCGTTTGGTCTCGTCGCCCGGAGTCACCTAGTGCAG”, the binding signal was 8090 fluorescence intensity (a.u.).
For “AACGCTCTACTGGATCCAAAATTCCCCATCATATAACAAGCGGAGTCACCTAGTGCAG”, the binding signal was 8250 fluorescence intensity (a.u.).
With “AACTCAAAATTTTTAACTAAATTTTAAAATTTTTTGACTCCGGAGTCACCTAGTGCAG” the binding signal was 8270 fluorescence intensity (a.u.).
In the case of “TAGTGATGTATACACTTCCTTTATCACTTTTGTTTGCATTCGGAGTCACCTAGTGCAG”, the binding signal is reported as 9990 fluorescence intensity (a.u.).
With “CTAGGGAGGAGGTGGGGTCTGGCCGGGGCTAAGGACATCTCGGAGTCACCTAGTGCAG” the binding signal was 11600 fluorescence intensity (a.u.).
“AATCGATGAGGCCCTACGTGTGTTTTCTGTCAGCTTGCTACGGAGTCACCTAGTGCAG” was tested, and the binding signal was 8880 fluorescence intensity (a.u.).
With “TCCTCGTCGTCTCCTCCGCTCCTCGTGCCATCTCGCGGCTCGGAGTCACCTAGTGCAG” the binding signal was 9120 fluorescence intensity (a.u.).
In the case of “CACCTAGTATACTCACAATGTTTCACTATGTATAGATCTACGGAGTCACCTAGTGCAG”, the binding signal is reported as 9570 fluorescence intensity (a.u.).
“TCCTACAGCTTTGCCCGCACCGCTCCGTCGTCCCGGCCGTCGGAGTCACCTAGTGCAG” was tested, and the binding signal was 8210 fluorescence intensity (a.u.).
For “ACCGATTTTTGAGTTATCTACATTGCCTTGCAACTATACCCGGAGTCACCTAGTGCAG”, the binding signal was 9350 fluorescence intensity (a.u.).
For “CGTTTTTTAATAGATGACGCCGTTGACTTTTTCTCACATGCGGAGTCACCTAGTGCAG”, the binding signal was 31400 fluorescence intensity (a.u.).
With “TTTTGTTCGCTACTATAGGCCCACACGTCTGTGCCCATGGCGGAGTCACCTAGTGCAG” the binding signal was 8660 fluorescence intensity (a.u.).
“CCGCGGACGAACCCTCCTACTCTTCTTCTTCTTCTTGTGTCGGAGTCACCTAGTGCAG” was tested, and the binding signal was 9420 fluorescence intensity (a.u.).
For “TTGTTTGTAAATATACCGTTTGTCTTTTTTCTGTGAATAACGGAGTCACCTAGTGCAG”, the binding signal was 8360 fluorescence intensity (a.u.).
In the case of “GTGGGTGTTCGCTACAATGCCATTTTCACCATTGGTTGCACGGAGTCACCTAGTGCAG”, the binding signal is reported as 10700 fluorescence intensity (a.u.).
“ATCAACAAGCACGTCTTCTTTTTTTTTGAGAAGCTGACTTCGGAGTCACCTAGTGCAG” was tested, and the binding signal was 8240 fluorescence intensity (a.u.).
“CCAATTCCTCTTGTTTCTTTTCAAAAAAGTTTTTTTTTGCCGGAGTCACCTAGTGCAG” was tested, and the binding signal was 10000 fluorescence intensity (a.u.).
In the case of “ACTTGGGTATAATGTGGATATTAACTTTTTATGGTATTAACGGAGTCACCTAGTGCAG”, the binding signal is reported as 10700 fluorescence intensity (a.u.).
With “TGTTCATTGTCTACTTCTGTAATGTTCTTGAGGGCAAAGGCGGAGTCACCTAGTGCAG” the binding signal was 8970 fluorescence intensity (a.u.).
With “GAACAAGTTGATGCACTGTTCTGTTTACCTCTTAATATGACGGAGTCACCTAGTGCAG” the binding signal was 8340 fluorescence intensity (a.u.).
“ATTATTTCTTGCTGGATAGGTTCATGGTTTTGCCAAAATTCGGAGTCACCTAGTGCAG” was tested, and the binding signal was 10800 fluorescence intensity (a.u.).
With “CAAGCACTTATACAAACTCAAAACCACAACTCTCTCGCATCGGAGTCACCTAGTGCAG” the binding signal was 9090 fluorescence intensity (a.u.).
“AGTTTTTCCCCTTTCAGGTCATGTGTTCATCAAGTCCTGTCGGAGTCACCTAGTGCAG” was tested, and the binding signal was 9310 fluorescence intensity (a.u.).
For “GTTTTAAGATCCAACTCTTTGACCAATAATATTCTTTTATCGGAGTCACCTAGTGCAG”, the binding signal was 9960 fluorescence intensity (a.u.).
“AAACCTGAAAACCCTCGCCGCTTCTCCCCGTCCTTCCTTTCGGAGTCACCTAGTGCAG” was tested, and the binding signal was 8160 fluorescence intensity (a.u.).
With “ATCCTCTGACTTTGACTCATTCCCTCTATTTTGCGTCACTCGGAGTCACCTAGTGCAG” the binding signal was 13700 fluorescence intensity (a.u.).
In the case of “TTTAGCTGAGTCTGACAATTACTATCTCCGTTTCAAATTACGGAGTCACCTAGTGCAG”, the binding signal is reported as 8710 fluorescence intensity (a.u.).
In the case of “GGGGCAGTTTTGTCAGATCAGAAGCGGTGGCAGAACGGTGCGGAGTCACCTAGTGCAG”, the binding signal is reported as 8310 fluorescence intensity (a.u.).
